Measurements reported in PubChem BioAssay AID686938 (Drosophila RNAi Screening Center, 2013)
The deposit covers about 23,000 reagents; this is an unselected part of those that have a named target and a result. Of all reagents, 75 (0.33%) were called active. 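Raw plate signals without normalisation; calls rest on plate z-scores that were not deposited; ratio present for only 364 wells.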 Unmarked entries are inactive. Names joined by + are all predicted targets of the reagent. Not stated in the record: the dose of the treatment.

- Purpose: 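Looking for CRAC channel components and the factors controlling them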 (primary screen)
- System: Drosophila S2R+ cells
- Knock-down reagent: long dsRNA against Drosophila genes, about 0.25 µg dsRNA per well, roughly 10,000 cells
- Duration: 5 days of knock-down before the calcium assay
- Conditions: thapsigargin (SERCA pump blocker) to empty calcium stores; entry signal taken 4 min after adding it
- Detection: 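Per-well fluo-4 fluorescence in two replicates, unnormalised, measured in resting cells and 4 min after store depletion by the SERCA blocker thapsigargin; ratio of the two present in few wells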
- Reading the numbers: calcium entry signal: higher = stronger calcium signal after store depletion; resting calcium signal: higher = higher resting calcium signal
- Active means: 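Called when the plate z-score of the entry-to-rest ratio, mean of duplicates, falls below −3; wells with low overall dye signal (Fmax z below −2) or more than five off-targets excluded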
- Calls: active = strongly reduced calcium entry; inactive = no strong reduction

gene knocked down | DRSC id | calcium entry signal, replicate 1 (fluorescence units) | calcium entry signal, replicate 2 (fluorescence units) | resting calcium signal, replicate 1 (fluorescence units) | resting calcium signal, replicate 2 (fluorescence units)
spartin | DRSC12187 | 2.67e7 | 5.94e7 | 1.40e7 | 2.30e7
Karybeta3 (Karyopherin beta 3) | DRSC12355 | 2.75e7 | 3.44e7 | 1.41e7 | 2.38e7
CG31689 | DRSC00734 | 4.27e7 | 5.53e7 | 1.98e7 | 2.23e7
CG9541 | DRSC03257 | 2.52e7 | 3.24e7 | 1.25e7 | 1.48e7
CG9512 | DRSC20189 | 2.72e7 | 3.53e7 | 1.21e7 | 1.46e7
CG13297 | DRSC09971 | 2.88e7 | 3.91e7 | 1.39e7 | 1.59e7
btv (beethoven) | DRSC01615 | 2.91e7 | 4.51e7 | 1.66e7 | 1.92e7
btv (beethoven) | DRSC02449 | 4.57e7 | 3.36e7 | 1.95e7 | 1.56e7
CG33467 | DRSC05525 | 4.01e7 | 5.35e7 | 1.75e7 | 2.37e7
CG33467 | DRSC22651 | 4.39e7 | 3.55e7 | 2.62e7 | 1.60e7
CG9411 | DRSC20184 | 3.08e7 | 3.26e7 | 1.52e7 | 1.46e7
Cyp18a1 (Cytochrome P450 18a1) | DRSC20235 | 3.43e7 | 3.96e7 | 1.56e7 | 1.66e7
ATP6AP2 (ATPase H+ transporting accessory protein 2) | DRSC16420 | 3.64e7 | 3.87e7 | 1.62e7 | 1.82e7
CG30491 | DRSC21472 | 2.84e7 | 2.84e7 | 1.51e7 | 1.35e7
Kal1 (Kallmann syndrome 1) | DRSC15983 | 3.21e7 | 3.26e7 | 1.42e7 | 1.52e7
CG32213 + CG12519 + 825-Oak + 1 more | DRSC09615 | 3.31e7 | 4.65e7 | 1.86e7 | 1.84e7
fln (flightin) | DRSC11346 | 3.74e7 | 4.43e7 | 1.71e7 | 2.91e7
mthl14 (methuselah-like 14) | DRSC07865 | 2.96e7 | 4.77e7 | 1.56e7 | 2.08e7
CG32026 | DRSC08950 | 3.68e7 | 5.72e7 | 2.15e7 | 2.59e7
CG9521 | DRSC20196 | 4.01e7 | 3.30e7 | 2.06e7 | 1.65e7
CG13492 | DRSC04137 | 4.55e7 | 6.06e7 | 2.21e7 | 2.49e7
Upf1 (Upf1 RNA helicase) | DRSC19667 | 2.73e7 | 3.19e7 | 1.52e7 | 1.55e7
CG3815 | DRSC18324 | 3.73e7 | 3.62e7 | 1.75e7 | 1.66e7

No new results follow: an excerpt of the list.
gene knocked down | DRSC id | calcium entry signal, replicate 1 (fluorescence units) | calcium entry signal, replicate 2 (fluorescence units) | resting calcium signal, replicate 1 (fluorescence units) | resting calcium signal, replicate 2 (fluorescence units)
CG31689 | DRSC00734 | 4.27e7 | 5.53e7 | 1.98e7 | 2.23e7
CG9541 | DRSC03257 | 2.52e7 | 3.24e7 | 1.25e7 | 1.48e7
CG9512 | DRSC20189 | 2.72e7 | 3.53e7 | 1.21e7 | 1.46e7
CG13297 | DRSC09971 | 2.88e7 | 3.91e7 | 1.39e7 | 1.59e7

The results go on:
gene knocked down | DRSC id | calcium entry signal, replicate 1 (fluorescence units) | calcium entry signal, replicate 2 (fluorescence units) | resting calcium signal, replicate 1 (fluorescence units) | resting calcium signal, replicate 2 (fluorescence units)
Cpr50Ca (Cuticular protein 50Ca) | DRSC05454 | 4.94e7 | 4.68e7 | 2.32e7 | 2.29e7
Cpr50Ca (Cuticular protein 50Ca) | DRSC06372 | 3.88e7 | 3.72e7 | 1.87e7 | 1.77e7
Cpr50Ca (Cuticular protein 50Ca) | DRSC06375 | 3.42e7 | 4.64e7 | 1.76e7 | 2.02e7
GEFmeso (Guanine nucleotide exchange factor in mesoderm) | DRSC06748 | 4.17e7 | 3.31e7 | 1.74e7 | 1.63e7
GEFmeso (Guanine nucleotide exchange factor in mesoderm) | DRSC06940 | 5.56e7 | 6.50e7 | 2.32e7 | 2.99e7
GEFmeso (Guanine nucleotide exchange factor in mesoderm) | DRSC21475 | 2.17e7 | 2.34e7 | 1.14e7 | 1.15e7
CR43142 (pseudo) | DRSC00962 | 2.91e7 | 3.33e7 | 1.77e7 | 1.56e7
CG9313 | DRSC04540 | 4.20e7 | – | 1.99e7 | –
Gp93 (Glycoprotein 93) | DRSC15827 | 3.41e7 | 4.28e7 | 1.74e7 | 2.15e7
MESK2 + CG10494 | DRSC04259 | 3.68e7 | 4.85e7 | 1.98e7 | 2.03e7
Orco (Odorant receptor co-receptor) | DRSC12358 | 4.58e7 | 4.20e7 | 2.12e7 | 1.88e7
CG14143 | DRSC10146 | 3.35e7 | 4.44e7 | 1.57e7 | 1.92e7
CG7215 + Prx5 | DRSC16214 | 3.10e7 | 3.53e7 | 3.25e7 | 1.50e7
CG7215 + Prx5 | DRSC16215 | 4.03e7 | 3.39e7 | 1.82e7 | 1.50e7
Nadk1b (NAD kinase 1b) | DRSC05432 | 4.04e7 | 4.23e7 | 2.01e7 | 1.84e7
Nadk1b (NAD kinase 1b) | DRSC06964 | 2.49e7 | 3.03e7 | 1.23e7 | 1.50e7
Nadk1b (NAD kinase 1b) | DRSC06965 | 3.64e7 | 3.64e7 | 1.89e7 | 1.73e7
